Results are given in words; binding and its absence hold for the method and conditions named. Binding seen in cells or lysates may run through a third protein. A result given as binding can be weak or reduced; the word gives no strength. For some assays here: Tags and fused reporters may be left off the sequences shown.
Experiments:
[1] = biological target: T1, TIR1-VENUS (pTIR1:gTIR1-VENUS plants) (Arabidopsis thaliana) (UniProt Q570C0); experiment: co-IP; same procedure with 4 ug anti-GFP antibody; total protein from 7-day-old pTIR1:gTIR1-VENUS seedlings; blots with anti-GFP, anti-HSP90, anti-SGT1
T1 sequence: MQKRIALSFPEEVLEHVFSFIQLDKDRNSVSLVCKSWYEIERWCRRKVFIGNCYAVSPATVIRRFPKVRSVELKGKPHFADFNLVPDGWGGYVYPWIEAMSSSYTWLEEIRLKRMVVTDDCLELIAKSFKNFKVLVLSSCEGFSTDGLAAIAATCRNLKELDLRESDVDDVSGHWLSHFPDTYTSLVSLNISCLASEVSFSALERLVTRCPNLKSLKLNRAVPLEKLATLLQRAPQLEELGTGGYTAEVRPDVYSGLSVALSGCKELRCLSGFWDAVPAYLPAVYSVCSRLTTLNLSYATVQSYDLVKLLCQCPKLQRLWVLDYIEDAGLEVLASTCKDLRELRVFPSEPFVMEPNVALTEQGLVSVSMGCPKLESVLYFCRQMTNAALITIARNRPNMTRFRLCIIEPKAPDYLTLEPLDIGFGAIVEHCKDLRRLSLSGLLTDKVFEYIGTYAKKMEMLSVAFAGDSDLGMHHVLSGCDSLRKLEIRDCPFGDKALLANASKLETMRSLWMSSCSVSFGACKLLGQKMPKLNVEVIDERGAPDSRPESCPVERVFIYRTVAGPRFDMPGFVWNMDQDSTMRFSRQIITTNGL

[2] = biological target: T2, TIR1-Myc (pDEX:TIR1-Myc plants) (Arabidopsis thaliana) (UniProt Q570C0); experiment: co-IP; anti-Myc antibody crosslinked to Protein G Dynabeads; 2 mg total protein from 7-day-old pGVG:TIR1-Myc seedlings treated with or without 30 uM dexamethasone for 24 h; 4 h at 4 °C; blots with anti-Myc, anti-HSP90, anti-SGT1
T2 sequence: T1 sequence

Substance: HSP90 (endogenous, Arabidopsis seedlings)
- binding [1]: binds
- binding [2]: binds

Reference: article PMC4728404
